# Data published in the supplement of paper PMC6411743.
# Amino acid sequences for entries named in this document (tags omitted). A change or cut given only in a name is not applied to a line headed by its entry.
# UniProt P08758: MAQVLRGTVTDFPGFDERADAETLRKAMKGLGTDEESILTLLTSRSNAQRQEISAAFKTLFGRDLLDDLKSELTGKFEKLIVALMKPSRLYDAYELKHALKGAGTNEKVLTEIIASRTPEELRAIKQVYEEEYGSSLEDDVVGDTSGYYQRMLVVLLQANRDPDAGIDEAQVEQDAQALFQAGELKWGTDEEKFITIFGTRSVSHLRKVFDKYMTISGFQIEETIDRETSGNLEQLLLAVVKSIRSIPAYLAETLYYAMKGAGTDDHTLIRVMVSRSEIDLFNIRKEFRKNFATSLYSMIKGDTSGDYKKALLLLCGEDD
# UniProt P00441, whole entry: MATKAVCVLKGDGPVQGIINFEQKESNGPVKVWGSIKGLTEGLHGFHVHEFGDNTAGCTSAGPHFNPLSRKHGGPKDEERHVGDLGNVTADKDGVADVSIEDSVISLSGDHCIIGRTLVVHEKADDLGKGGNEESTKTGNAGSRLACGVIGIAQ
# UniProt P11413, whole entry: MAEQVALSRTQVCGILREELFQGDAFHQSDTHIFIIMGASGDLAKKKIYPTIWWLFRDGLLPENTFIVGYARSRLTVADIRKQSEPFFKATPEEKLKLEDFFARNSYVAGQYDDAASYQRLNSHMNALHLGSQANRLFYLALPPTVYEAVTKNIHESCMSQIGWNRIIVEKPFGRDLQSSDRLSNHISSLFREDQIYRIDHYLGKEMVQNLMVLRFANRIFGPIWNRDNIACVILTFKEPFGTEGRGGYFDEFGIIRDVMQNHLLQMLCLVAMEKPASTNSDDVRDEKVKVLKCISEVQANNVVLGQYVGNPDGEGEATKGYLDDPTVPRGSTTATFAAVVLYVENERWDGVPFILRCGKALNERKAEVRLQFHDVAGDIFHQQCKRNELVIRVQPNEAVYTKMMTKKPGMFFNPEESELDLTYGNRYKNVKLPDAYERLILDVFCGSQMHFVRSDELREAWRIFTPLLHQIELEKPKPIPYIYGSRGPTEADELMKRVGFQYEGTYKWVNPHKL
# UniProt P10599: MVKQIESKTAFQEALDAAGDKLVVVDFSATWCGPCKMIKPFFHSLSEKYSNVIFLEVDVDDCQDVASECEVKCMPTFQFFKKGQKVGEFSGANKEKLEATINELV
# UniProt O95848: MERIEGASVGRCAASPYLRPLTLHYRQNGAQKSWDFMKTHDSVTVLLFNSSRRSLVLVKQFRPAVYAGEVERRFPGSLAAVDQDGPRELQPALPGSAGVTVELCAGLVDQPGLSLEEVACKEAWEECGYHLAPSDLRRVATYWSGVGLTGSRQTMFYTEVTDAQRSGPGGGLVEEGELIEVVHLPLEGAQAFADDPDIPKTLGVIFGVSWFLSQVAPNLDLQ
# UniProt P16455, whole entry: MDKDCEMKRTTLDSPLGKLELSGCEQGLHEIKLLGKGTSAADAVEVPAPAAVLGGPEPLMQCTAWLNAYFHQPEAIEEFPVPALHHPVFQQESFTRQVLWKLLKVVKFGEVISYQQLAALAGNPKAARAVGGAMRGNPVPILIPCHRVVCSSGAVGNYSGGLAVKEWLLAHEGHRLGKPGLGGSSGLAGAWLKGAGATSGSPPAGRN
# UniProt P16403, whole entry: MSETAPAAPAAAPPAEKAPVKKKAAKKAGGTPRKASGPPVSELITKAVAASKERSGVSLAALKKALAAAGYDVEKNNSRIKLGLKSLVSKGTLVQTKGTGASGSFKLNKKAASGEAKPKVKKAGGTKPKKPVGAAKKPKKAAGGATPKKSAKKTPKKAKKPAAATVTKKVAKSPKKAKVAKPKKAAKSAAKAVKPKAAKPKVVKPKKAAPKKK
# UniProt P15104, whole entry: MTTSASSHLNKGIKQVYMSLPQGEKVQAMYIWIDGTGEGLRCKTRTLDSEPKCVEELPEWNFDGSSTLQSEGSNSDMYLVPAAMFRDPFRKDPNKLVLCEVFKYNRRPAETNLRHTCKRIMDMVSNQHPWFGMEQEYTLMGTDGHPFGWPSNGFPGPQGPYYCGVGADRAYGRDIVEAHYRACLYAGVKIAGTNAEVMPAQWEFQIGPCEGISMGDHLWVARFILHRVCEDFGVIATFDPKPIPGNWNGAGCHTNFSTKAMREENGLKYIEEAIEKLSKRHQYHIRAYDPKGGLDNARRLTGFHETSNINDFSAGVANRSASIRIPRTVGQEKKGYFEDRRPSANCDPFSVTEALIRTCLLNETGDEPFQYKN
# UniProt P11310: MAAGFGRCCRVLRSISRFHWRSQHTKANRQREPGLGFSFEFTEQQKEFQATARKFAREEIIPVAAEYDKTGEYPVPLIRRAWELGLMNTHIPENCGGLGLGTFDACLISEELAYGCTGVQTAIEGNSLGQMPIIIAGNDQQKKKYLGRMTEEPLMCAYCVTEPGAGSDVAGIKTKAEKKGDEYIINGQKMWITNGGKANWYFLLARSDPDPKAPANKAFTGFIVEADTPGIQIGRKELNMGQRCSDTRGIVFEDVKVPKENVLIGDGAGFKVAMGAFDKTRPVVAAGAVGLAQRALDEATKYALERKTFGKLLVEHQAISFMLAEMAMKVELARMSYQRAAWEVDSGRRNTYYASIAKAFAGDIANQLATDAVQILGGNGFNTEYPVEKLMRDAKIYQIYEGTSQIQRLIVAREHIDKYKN
# UniProt P02792: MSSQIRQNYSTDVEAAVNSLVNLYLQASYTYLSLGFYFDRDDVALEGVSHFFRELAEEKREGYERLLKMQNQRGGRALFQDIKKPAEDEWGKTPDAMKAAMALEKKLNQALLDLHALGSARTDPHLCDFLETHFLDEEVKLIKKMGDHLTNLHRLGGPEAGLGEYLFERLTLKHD
# UniProt P13716: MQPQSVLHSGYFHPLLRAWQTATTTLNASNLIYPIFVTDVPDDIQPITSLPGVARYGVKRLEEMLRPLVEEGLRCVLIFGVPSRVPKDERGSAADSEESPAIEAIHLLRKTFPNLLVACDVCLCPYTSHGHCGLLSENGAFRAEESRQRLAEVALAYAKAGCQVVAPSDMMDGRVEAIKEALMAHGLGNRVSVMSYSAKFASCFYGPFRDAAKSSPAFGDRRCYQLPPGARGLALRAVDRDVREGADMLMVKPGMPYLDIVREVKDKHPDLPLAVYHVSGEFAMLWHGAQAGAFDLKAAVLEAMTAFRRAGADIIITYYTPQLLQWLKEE
# UniProt P06396, whole entry: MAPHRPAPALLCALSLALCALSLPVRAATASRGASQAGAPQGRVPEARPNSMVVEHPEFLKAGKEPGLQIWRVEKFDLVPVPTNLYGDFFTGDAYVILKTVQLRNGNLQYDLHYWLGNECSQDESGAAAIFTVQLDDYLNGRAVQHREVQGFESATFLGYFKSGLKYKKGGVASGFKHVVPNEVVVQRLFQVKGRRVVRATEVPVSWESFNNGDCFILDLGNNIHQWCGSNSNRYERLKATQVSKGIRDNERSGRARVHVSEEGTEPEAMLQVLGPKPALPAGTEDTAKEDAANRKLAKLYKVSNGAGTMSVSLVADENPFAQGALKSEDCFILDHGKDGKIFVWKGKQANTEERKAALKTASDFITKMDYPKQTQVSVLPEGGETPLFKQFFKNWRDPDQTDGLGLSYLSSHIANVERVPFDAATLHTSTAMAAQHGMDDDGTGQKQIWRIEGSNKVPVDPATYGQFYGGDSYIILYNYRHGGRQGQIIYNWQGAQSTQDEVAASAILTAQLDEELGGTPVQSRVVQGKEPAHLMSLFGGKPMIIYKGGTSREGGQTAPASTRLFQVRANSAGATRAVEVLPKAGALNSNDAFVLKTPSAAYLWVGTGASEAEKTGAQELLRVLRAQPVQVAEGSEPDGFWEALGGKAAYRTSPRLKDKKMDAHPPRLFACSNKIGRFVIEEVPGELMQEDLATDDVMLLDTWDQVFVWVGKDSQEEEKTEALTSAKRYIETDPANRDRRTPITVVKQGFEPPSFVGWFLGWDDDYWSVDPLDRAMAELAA
# UniProt P06400: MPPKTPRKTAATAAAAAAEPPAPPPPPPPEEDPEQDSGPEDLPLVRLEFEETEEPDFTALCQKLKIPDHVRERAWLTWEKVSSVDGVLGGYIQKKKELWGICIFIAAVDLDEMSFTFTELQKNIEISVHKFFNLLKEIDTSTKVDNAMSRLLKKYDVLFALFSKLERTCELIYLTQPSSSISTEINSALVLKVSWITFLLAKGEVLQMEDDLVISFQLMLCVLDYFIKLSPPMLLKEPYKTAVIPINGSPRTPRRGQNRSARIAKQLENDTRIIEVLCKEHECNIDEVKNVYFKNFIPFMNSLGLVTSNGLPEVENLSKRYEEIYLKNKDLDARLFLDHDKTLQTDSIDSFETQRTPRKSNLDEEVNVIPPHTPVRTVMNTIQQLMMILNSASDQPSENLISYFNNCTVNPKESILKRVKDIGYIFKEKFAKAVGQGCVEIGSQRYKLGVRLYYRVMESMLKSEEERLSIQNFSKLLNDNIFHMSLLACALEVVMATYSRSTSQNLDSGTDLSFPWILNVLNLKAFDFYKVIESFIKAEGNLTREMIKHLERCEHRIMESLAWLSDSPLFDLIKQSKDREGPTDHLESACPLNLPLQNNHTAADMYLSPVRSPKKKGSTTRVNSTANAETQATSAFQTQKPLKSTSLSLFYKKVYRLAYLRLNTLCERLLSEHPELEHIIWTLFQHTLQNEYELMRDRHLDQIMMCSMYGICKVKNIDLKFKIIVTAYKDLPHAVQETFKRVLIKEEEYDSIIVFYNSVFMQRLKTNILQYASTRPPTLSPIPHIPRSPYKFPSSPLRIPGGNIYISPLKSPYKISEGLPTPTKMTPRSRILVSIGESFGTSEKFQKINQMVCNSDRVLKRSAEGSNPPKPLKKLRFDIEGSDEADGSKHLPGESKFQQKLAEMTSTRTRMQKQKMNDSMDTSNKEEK
# UniProt P05556, whole entry: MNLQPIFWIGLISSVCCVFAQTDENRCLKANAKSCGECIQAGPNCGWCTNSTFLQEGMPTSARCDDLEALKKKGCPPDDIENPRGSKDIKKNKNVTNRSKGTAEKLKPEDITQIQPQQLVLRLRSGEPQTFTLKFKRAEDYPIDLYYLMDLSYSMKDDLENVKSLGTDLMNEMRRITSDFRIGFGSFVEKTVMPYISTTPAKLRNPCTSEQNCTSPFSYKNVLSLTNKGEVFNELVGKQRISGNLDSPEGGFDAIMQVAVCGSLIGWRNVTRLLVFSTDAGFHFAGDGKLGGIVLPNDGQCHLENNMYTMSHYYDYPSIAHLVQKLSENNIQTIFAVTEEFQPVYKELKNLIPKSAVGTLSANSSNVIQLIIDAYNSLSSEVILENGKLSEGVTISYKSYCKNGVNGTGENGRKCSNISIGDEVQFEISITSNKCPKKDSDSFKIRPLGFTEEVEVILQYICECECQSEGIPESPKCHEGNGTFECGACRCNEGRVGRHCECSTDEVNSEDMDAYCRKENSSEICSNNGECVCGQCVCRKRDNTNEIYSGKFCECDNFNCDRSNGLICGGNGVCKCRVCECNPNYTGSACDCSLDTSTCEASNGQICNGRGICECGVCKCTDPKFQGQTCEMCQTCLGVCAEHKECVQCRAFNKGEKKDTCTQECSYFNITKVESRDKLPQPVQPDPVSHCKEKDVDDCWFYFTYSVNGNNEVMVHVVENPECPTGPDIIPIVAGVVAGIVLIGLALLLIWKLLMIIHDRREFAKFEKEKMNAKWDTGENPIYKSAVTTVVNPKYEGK
# UniProt P05165: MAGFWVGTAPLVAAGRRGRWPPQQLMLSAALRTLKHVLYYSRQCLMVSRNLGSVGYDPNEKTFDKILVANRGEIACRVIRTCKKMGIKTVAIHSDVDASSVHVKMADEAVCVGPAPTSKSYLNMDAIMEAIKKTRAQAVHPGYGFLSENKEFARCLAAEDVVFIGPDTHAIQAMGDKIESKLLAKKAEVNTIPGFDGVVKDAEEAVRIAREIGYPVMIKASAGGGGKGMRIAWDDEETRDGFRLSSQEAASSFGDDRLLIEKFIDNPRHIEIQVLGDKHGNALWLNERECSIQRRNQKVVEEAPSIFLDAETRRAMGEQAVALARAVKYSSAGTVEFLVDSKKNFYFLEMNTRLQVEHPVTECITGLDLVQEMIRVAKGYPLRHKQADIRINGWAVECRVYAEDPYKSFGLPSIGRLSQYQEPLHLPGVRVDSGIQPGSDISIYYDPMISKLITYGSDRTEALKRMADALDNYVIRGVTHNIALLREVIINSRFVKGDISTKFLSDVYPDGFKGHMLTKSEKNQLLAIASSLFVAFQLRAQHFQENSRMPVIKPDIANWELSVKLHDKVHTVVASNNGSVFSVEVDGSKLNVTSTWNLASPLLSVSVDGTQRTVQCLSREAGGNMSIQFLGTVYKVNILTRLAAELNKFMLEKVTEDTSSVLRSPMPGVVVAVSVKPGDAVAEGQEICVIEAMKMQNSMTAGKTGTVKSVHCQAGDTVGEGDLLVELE
# UniProt P10109: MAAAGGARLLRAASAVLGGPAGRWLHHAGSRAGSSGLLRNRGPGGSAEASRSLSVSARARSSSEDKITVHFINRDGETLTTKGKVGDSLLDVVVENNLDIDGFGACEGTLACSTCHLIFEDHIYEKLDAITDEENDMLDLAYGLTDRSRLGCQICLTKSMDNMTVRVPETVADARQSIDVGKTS
# ± gives the standard deviation of the averaged measurements. Only a part is listed here, and it is no random draw.
# Compound: Nc1ncnc2c1ncn2[C@@H]1O[C@H](COP(=O)(O)OP(=O)(O)OP(=O)(O)O)[C@@H](O)[C@H]1O [adenosine triphosphate]
# Assay: NP40-soluble protein abundance relative to vehicle (solubility fold change) (ratio); higher = more soluble protein in presence of ATP
# Procedure, shortened: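 Crude Jurkat lysate, prepared by Dounce homogenisation, was exposed to eight concentrations from 0.1 to 10 mM for 10 min at room temperature and then 3 min at 37 °C. Solubilisation used 0.8% NP40 with benzonase for 60 min at 4 °C, followed by ultracentrifugation and TMT labelling of the supernatant for LC-MS/MS. After vsn normalisation of intensities, each value is the fold change against the detergent-processed vehicle within each replicate, across three independent experiments.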
Target,NP40-soluble protein abundance (concentration: 1mM),NP40-soluble protein abundance (concentration: 2mM),NP40-soluble protein abundance (concentration: 4mM),NP40-soluble protein abundance (concentration: 6mM),NP40-soluble protein abundance (concentration: 8mM),NP40-soluble protein abundance (concentration: 10mM)
ANXA5 (UniProt P08758),0.922 ± 0.03,0.947 ± 0.042,0.891 ± 0.032,0.9 ± 0.1,0.889 ± 0.045,0.88 ± 0.051
RAC2 (UniProt P15153),0.958 ± 0.034,0.955 ± 0.038,0.904 ± 0.07,0.937 ± 0.077,0.912 ± 0.083,0.921 ± 0.031
UniProt P13051 and related entries,1.03 ± 0.13,0.999 ± 0.11,0.991 ± 0.1,0.953 ± 0.074,0.965 ± 0.089,0.94 ± 0.048
UniProt P08240,1.05 ± 0.058,1.05 ± 0.069,1.06 ± 0.07,1.05 ± 0.088,1.05 ± 0.049,1.07 ± 0.062
SOD1 (UniProt P00441),0.83 ± 0.15,0.939 ± 0.086,0.796 ± 0.14,1.07 ± 0.12,0.88 ± 0.045,0.906 ± 0.12
UniProt P14859-5|P14859-6,0.829 ± 0.08,0.859 ± 0.03,0.874 ± 0.022,0.96 ± 0.058,0.892 ± 0.034,0.879 ± 0.056
UniProt P11413 and related entries,1.01 ± 0.15,1 ± 0.12,0.969 ± 0.1,0.925 ± 0.16,1.01 ± 0.085,0.972 ± 0.071
UniProt P05362 and related entries,0.946 ± 0.078,0.935 ± 0.098,0.973 ± 0.028,0.981 ± 0.0033,0.934 ± 0.057,0.9368 ± 0.0052
TXN (UniProt P10599),1 ± 0.11,0.934 ± 0.024,0.914 ± 0.039,0.991 ± 0.042,0.905 ± 0.068,0.891 ± 0.04
NUDT14 (UniProt O95848),1.05 ± 0.012,1.09 ± 0.075,1.09 ± 0.034,1.04 ± 0.052,1 ± 0.066,1.09 ± 0.1
UniProt P13473-2|P13473 and related entries,0.938 ± 0.056,0.916 ± 0.026,0.91 ± 0.03,0.992 ± 0.032,0.881 ± 0.018,0.834 ± 0.05
UniProt P06729,0.888 ± 0.049,0.934 ± 0.015,0.894 ± 0.012,0.973 ± 0.0075,0.877 ± 0.026,0.912 ± 0.036
GLUD1 (UniProt P00367),0.955 ± 0.051,0.911 ± 0.055,0.9129 ± 0.0047,0.898 ± 0.048,0.9395 ± 0.0084,0.917 ± 0.037
MGMT (UniProt P16455),0.932 ± 0.075,0.943 ± 0.046,0.972 ± 0.045,0.934 ± 0.066,0.933 ± 0.04,0.897 ± 0.097
RAF1 (UniProt P04049),1.39 ± 0.046,1.41 ± 0.054,1.46 ± 0.058,1.41 ± 0.04,1.41 ± 0.096,1.48 ± 0.03
HIST1H1C (UniProt P16403),1.13 ± 0.13,1.04 ± 0.032,1.14 ± 0.073,1.2 ± 0.032,1.34 ± 0.11,1.39 ± 0.042
GLUL (UniProt P15104),1 ± 0.025,0.963 ± 0.026,0.95 ± 0.027,0.984 ± 0.027,0.965 ± 0.012,0.939 ± 0.022
UniProt P11310 and related entries,0.953 ± 0.0033,0.946 ± 0.027,0.931 ± 0.03,0.959 ± 0.045,0.933 ± 0.012,0.925 ± 0.043
UniProt P02792 and related entries,0.934 ± 0.13,0.888 ± 0.13,0.846 ± 0.11,0.922 ± 0.24,0.935 ± 0.15,0.804 ± 0.17
ALAD (UniProt P13716),0.993 ± 0.041,1.01 ± 0.024,0.982 ± 0.043,0.994 ± 0.078,0.963 ± 0.027,0.978 ± 0.039
UniProt P06396-2,1.35 ± 0.2,1.4 ± 0.13,1.41 ± 0.18,1.44 ± 0.14,1.4 ± 0.13,1.4 ± 0.1
RB1 (UniProt P06400),0.987 ± 0.012,0.993 ± 0.029,0.958 ± 0.018,0.98 ± 0.026,0.966 ± 0.028,0.981 ± 0.048
ITGB1 (UniProt P05556),0.935 ± 0.064,0.946 ± 0.025,0.923 ± 0.022,0.977 ± 0.067,0.913 ± 0.017,0.875 ± 0.035
UniProt P06730 and related entries,0.987 ± 0.032,1.01 ± 0.033,0.977 ± 0.012,0.989 ± 0.065,0.967 ± 0.029,1.02 ± 0.035
UniProt P05165 and related entries,1.05 ± 0.034,1.01 ± 0.06,1.01 ± 0.026,0.954 ± 0.066,1.01 ± 0.09,1.01 ± 0.062
FDX1 (UniProt P10109),0.91 ± 0.061,0.954 ± 0.05,0.884 ± 0.051,0.977 ± 0.056,0.867 ± 0.017,0.865 ± 0.023

# In a second layout: entries from further up.
Target	NP40-soluble protein abundance (concentration: 1mM)	NP40-soluble protein abundance (concentration: 2mM)	NP40-soluble protein abundance (concentration: 4mM)	NP40-soluble protein abundance (concentration: 6mM)	NP40-soluble protein abundance (concentration: 8mM)	NP40-soluble protein abundance (concentration: 10mM)
UniProt P13051 and related entries	1.03 ± 0.13	0.999 ± 0.11	0.991 ± 0.1	0.953 ± 0.074	0.965 ± 0.089	0.94 ± 0.048
UniProt P14859-5|P14859-6	0.829 ± 0.08	0.859 ± 0.03	0.874 ± 0.022	0.96 ± 0.058	0.892 ± 0.034	0.879 ± 0.056
UniProt P13473-2|P13473 and related entries	0.938 ± 0.056	0.916 ± 0.026	0.91 ± 0.03	0.992 ± 0.032	0.881 ± 0.018	0.834 ± 0.05
HIST1H1C (UniProt P16403)	1.13 ± 0.13	1.04 ± 0.032	1.14 ± 0.073	1.2 ± 0.032	1.34 ± 0.11	1.39 ± 0.042
UniProt P02792 and related entries	0.934 ± 0.13	0.888 ± 0.13	0.846 ± 0.11	0.922 ± 0.24	0.935 ± 0.15	0.804 ± 0.17
UniProt P06396-2	1.35 ± 0.2	1.4 ± 0.13	1.41 ± 0.18	1.44 ± 0.14	1.4 ± 0.13	1.4 ± 0.1
UniProt P06730 and related entries	0.987 ± 0.032	1.01 ± 0.033	0.977 ± 0.012	0.989 ± 0.065	0.967 ± 0.029	1.02 ± 0.035
